The list shows a part of the results.
Tests used:
Test in all cases: log2 fold change, soluble protein after heating vs DMSO (PISA); higher = thermal stabilisation; K562 lysate, 10 uM; active = over 0.2 and 3.5 SD of the protein, either way, in both replicates (recomputed)
lapatinib = compound: CS(=O)(=O)CCNCc1ccc(-c2ccc3ncnc(Nc4ccc(OCc5cccc(F)c5)c(Cl)c4)c3c2)o1 [lapatinib]
Summary of the method: (§1)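 Pellets of K562 cells were dounce-homogenised in PBS pH 7.4 with 1 mM MgCl2, and the crude extract was held at 1 mg/mL protein for a 30 min treatment with 10 μM compound. Aliquots were heated for 3 min over 48°C-58°C and pooled before NP-40 was added to 0.5% at 4°C. The supernatant from 21,000xg for 90 min was quantified by TMTpro 16plex LC-MS/MS with channel sums equalised. Values are reported from duplicates as log-two fold change in thermal stability relative to solvent controls.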

The chains behind the UniProt entries cited, without tags or fusion partners. Where a name states a change or a piece, a line headed by the entry shows the natural chain unless it says otherwise.
UniProt O95163: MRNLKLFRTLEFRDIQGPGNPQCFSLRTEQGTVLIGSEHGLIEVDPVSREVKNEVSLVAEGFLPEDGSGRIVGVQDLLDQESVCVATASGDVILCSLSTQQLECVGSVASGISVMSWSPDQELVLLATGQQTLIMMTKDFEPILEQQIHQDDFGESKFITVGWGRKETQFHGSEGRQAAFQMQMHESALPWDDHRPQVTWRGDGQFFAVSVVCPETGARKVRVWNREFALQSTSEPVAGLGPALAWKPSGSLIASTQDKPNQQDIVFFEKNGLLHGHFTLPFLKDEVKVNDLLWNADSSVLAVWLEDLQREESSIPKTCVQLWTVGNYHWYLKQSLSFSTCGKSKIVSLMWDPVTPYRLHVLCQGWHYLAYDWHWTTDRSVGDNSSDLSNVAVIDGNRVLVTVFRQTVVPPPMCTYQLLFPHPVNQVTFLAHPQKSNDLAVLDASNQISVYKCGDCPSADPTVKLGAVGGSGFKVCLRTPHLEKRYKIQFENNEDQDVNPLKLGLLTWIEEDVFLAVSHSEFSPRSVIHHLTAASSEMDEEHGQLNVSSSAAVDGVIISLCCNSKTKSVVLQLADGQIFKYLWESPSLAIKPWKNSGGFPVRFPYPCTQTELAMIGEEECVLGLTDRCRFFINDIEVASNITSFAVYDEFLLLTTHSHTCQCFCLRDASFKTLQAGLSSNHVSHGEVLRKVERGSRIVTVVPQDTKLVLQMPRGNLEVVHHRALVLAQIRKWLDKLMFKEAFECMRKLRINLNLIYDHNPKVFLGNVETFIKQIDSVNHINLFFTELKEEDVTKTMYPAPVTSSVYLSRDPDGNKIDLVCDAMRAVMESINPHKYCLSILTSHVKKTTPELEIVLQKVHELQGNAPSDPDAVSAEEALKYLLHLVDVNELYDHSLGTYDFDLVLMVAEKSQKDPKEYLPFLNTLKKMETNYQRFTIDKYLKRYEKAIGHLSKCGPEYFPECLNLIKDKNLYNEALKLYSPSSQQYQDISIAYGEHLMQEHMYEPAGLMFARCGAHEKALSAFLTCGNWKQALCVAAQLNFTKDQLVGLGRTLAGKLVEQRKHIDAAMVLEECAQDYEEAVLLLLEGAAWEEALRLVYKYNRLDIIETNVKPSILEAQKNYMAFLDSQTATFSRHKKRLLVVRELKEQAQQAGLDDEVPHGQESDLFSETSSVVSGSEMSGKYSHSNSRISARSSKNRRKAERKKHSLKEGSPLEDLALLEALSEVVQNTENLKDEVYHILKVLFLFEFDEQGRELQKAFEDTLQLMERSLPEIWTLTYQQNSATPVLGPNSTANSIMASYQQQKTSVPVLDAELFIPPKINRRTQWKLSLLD
UniProt Q7L2H7, whole entry, looked up: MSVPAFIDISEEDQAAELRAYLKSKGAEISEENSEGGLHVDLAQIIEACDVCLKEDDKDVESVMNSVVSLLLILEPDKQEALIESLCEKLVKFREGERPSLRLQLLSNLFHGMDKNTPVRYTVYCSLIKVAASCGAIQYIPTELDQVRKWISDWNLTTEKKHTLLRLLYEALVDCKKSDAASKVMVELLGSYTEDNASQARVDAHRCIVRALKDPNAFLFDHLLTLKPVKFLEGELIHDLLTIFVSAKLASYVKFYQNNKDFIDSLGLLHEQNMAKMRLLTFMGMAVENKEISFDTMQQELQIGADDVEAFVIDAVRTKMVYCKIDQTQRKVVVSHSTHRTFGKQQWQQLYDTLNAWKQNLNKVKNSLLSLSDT
UniProt Q0PNE2: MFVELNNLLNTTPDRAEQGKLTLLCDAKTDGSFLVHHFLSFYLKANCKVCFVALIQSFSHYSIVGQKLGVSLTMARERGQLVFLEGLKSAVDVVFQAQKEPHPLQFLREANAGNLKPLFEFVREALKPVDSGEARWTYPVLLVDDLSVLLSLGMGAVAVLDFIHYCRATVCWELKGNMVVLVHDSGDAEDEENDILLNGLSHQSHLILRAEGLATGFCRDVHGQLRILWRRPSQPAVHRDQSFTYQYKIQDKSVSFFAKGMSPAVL
UniProt Q9NYP7: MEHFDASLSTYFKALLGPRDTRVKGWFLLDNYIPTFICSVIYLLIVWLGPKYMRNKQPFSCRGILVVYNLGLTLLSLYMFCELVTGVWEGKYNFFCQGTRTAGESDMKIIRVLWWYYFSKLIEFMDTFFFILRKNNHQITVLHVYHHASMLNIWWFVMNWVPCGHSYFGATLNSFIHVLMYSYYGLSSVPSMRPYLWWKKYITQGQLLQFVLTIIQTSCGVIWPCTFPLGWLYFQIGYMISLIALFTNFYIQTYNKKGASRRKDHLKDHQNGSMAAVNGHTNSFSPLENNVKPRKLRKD
UniProt O75356: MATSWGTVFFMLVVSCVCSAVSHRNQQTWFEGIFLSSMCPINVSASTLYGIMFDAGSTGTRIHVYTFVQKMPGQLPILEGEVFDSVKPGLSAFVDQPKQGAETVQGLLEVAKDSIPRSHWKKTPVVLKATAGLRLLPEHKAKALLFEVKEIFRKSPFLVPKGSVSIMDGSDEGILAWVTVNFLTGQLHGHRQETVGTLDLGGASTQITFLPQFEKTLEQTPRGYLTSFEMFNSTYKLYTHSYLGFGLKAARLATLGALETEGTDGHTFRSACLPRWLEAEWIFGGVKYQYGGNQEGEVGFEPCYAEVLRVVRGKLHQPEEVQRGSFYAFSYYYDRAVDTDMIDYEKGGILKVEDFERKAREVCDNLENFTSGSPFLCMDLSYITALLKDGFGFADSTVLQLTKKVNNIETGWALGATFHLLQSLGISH
UniProt Q8IV48: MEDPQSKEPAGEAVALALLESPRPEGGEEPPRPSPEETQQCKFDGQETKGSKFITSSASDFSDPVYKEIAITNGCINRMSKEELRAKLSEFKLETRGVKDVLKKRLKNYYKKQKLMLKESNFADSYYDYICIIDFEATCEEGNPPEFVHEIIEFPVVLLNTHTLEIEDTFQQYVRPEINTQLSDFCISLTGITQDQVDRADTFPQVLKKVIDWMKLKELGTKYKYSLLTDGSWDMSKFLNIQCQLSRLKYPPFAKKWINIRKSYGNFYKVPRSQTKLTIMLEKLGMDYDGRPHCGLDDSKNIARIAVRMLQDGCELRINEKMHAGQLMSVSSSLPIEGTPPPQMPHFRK
UniProt O43768: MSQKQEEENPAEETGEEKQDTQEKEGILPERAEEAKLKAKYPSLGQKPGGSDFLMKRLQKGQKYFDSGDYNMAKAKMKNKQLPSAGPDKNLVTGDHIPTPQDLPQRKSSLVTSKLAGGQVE
UniProt O75616: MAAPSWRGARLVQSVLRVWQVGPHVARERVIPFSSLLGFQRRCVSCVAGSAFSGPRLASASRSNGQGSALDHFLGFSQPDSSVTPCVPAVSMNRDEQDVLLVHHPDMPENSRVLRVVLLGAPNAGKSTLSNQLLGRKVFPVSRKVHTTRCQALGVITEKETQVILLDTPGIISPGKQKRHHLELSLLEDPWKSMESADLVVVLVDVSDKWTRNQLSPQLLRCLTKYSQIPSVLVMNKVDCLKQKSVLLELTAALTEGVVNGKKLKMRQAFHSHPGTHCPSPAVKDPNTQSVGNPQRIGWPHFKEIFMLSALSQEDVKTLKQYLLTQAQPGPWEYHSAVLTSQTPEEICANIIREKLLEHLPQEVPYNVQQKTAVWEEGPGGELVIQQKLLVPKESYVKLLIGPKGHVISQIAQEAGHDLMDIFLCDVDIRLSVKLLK
UniProt O60573: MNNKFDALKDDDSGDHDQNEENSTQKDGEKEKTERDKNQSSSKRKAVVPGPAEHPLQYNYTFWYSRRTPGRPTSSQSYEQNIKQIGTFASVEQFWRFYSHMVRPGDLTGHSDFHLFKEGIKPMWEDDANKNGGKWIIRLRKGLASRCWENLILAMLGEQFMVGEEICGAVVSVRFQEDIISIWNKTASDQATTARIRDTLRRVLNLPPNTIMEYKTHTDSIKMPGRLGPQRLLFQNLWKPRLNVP
UniProt Q15369, whole entry, looked up: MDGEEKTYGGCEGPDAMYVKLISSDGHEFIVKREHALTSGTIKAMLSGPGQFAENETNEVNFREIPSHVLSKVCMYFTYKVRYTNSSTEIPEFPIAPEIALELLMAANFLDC
UniProt P06730, whole entry, looked up: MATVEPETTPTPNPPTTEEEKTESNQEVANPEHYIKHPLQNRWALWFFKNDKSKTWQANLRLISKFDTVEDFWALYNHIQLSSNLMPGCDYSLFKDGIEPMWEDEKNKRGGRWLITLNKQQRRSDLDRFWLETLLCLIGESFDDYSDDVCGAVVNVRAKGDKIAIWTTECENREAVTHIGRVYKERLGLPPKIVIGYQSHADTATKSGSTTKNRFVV
UniProt P41214: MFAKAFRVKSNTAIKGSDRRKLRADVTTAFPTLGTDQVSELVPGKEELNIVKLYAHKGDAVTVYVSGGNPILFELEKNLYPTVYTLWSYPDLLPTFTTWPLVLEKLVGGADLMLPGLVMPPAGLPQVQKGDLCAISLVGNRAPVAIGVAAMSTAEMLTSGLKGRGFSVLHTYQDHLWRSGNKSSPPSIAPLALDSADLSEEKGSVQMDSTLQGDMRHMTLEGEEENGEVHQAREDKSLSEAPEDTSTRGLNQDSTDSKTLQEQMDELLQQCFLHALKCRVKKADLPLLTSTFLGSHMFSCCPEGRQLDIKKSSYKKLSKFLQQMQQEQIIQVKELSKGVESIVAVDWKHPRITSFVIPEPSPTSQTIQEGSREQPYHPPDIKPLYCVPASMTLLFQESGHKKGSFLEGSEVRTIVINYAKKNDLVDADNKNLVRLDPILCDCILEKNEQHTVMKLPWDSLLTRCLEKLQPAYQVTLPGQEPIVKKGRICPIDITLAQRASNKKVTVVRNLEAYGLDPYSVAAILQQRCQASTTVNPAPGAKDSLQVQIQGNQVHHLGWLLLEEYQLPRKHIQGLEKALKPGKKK
UniProt Q9Y282: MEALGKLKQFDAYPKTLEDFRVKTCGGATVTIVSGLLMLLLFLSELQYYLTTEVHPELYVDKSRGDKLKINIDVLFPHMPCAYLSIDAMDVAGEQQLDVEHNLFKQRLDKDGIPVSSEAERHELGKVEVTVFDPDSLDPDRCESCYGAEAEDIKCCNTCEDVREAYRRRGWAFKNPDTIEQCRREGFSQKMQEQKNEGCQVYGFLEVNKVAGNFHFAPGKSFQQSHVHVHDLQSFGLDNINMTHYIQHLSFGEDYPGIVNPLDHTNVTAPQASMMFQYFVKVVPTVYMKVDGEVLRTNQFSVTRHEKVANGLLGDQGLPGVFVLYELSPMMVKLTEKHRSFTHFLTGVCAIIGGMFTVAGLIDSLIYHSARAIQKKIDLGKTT
UniProt Q9H6S3: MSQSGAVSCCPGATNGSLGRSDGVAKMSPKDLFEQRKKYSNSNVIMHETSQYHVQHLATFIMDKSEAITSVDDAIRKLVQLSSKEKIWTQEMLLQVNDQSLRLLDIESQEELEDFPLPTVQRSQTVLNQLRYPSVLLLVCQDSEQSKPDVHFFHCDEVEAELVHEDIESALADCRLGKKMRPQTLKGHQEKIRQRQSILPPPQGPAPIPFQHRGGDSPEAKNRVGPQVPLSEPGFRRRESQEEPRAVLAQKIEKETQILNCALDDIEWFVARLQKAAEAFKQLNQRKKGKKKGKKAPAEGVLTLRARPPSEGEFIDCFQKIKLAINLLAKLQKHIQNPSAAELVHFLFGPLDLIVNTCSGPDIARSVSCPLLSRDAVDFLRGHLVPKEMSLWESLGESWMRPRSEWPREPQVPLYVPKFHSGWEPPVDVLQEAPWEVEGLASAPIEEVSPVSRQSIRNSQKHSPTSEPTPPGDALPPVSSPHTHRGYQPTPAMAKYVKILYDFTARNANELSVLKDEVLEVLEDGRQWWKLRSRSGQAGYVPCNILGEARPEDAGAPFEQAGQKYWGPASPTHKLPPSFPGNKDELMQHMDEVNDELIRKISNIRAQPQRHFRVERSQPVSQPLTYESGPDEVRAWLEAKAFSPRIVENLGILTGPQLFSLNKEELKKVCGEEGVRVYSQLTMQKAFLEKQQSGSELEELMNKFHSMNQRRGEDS

pictilisib = compound: CS(=O)(=O)N1CCN(Cc2cc3nc(-c4cccc5[nH]ncc45)nc(N4CCOCC4)c3s2)CC1 [pictilisib]
Summary of the method: as §1

crizotinib = compound: C[C@@H](Oc1cc(-c2cnn(C3CCNCC3)c2)cnc1N)c1c(Cl)ccc(F)c1Cl [crizotinib]
Summary of the method: as §1

[1] = compound: C[C@H](C1=CC=C(C=C1)C(=O)NC2=C3C=CNC3=NC=C2)N
Summary of the method: as §1

duvelisib = compound: C[C@H](Nc1ncnc2nc[nH]c12)c1cc2cccc(Cl)c2c(=O)n1-c1ccccc1 [duvelisib]
Summary of the method: as §1

gandotinib = compound: Cc1cc(Nc2cc(CN3CCOCC3)c3nc(C)c(Cc4ccc(Cl)cc4F)n3n2)n[nH]1 [gandotinib]
Summary of the method: as §1

tozasertib = compound: Cc1cc(Nc2cc(N3CCN(C)CC3)nc(Sc3ccc(NC(=O)C4CC4)cc3)n2)n[nH]1 [tozasertib]
Summary of the method: as §1

doramapimod = compound: Cc1ccc(-n2nc(C(C)(C)C)cc2NC(=O)Nc2ccc(OCCN3CCOCC3)c3ccccc23)cc1 [doramapimod]
Summary of the method: as §1

bafetinib = compound: Cc1ccc(NC(=O)c2ccc(CN3CC[C@H](N(C)C)C3)c(C(F)(F)F)c2)cc1Nc1nccc(-c2cncnc2)n1 [bafetinib]
Summary of the method: as §1

[2] = compound: Cc1cccc(CC(=O)N2CCc3c2ccc(-c2cn(C)c4ncnc(N)c24)c3F)n1
Summary of the method: as §1

nilotinib = compound: Cc1cn(-c2cc(NC(=O)c3ccc(C)c(Nc4nccc(-c5cccnc5)n4)c3)cc(C(F)(F)F)c2)cn1 [nilotinib]
Summary of the method: as §1

[3] = compound: Cc1nc(Nc2n[nH]c3c2CN(C(=O)N[C@H](CN(C)C)c2ccccc2)C3(C)C)c2sccc2n1
Summary of the method: as §1

dasatinib = compound: Cc1nc(Nc2ncc(C(=O)Nc3c(C)cccc3Cl)s2)cc(N2CCN(CCO)CC2)n1 [dasatinib]
Summary of the method: as §1

[4] = compound: Cc1ncc(-c2ccnc(Nc3ccc(S(C)(=O)=O)cc3)n2)n1C(C)C
Summary of the method: as §1

[5] = compound: Cn1cc(-c2ccc3c(c2)CCN3C(=O)Cc2cccc(C(F)(F)F)c2)c2c(N)ncnc21
Summary of the method: as §1

quisinostat = compound: Cn1cc(CNCC2CCN(c3ncc(C(=O)NO)cn3)CC2)c2ccccc21 [quisinostat]
Summary of the method: as §1

tipifarnib = compound: Cn1cncc1[C@@](N)(c1ccc(Cl)cc1)c1ccc2c(c1)c(-c1cccc(Cl)c1)cc(=O)n2C [tipifarnib]
Summary of the method: as §1

[6] = compound: NC(=O)Nc1cc(-c2cccc(F)c2)sc1C(=O)N[C@H]1CCCNC1
Summary of the method: as §1

[7] = compound: NC(=O)c1cnc(N[C@@H]2CCCC[C@@H]2N)nc1Nc1cccc(-n2nccn2)c1
Summary of the method: as §1

[8] = compound: NC1(c2ccc(-c3nc4ccn5c(=O)[nH]nc5c4cc3-c3ccccc3)cc2)CCC1
Summary of the method: as §1

Target | log2 fold change (lapatinib) | log2 fold change (pictilisib) | log2 fold change (crizotinib) | log2 fold change [1] | log2 fold change (duvelisib) | log2 fold change (gandotinib) | log2 fold change (tozasertib) | log2 fold change (doramapimod) | log2 fold change (bafetinib) | log2 fold change [2] | log2 fold change (nilotinib) | log2 fold change [3] | log2 fold change (dasatinib) | log2 fold change [4] | log2 fold change [5] | log2 fold change (quisinostat) | log2 fold change (tipifarnib) | log2 fold change [6] | log2 fold change [7] | log2 fold change [8]
ELP1 (UniProt O95163) | inactive: -0.028 | inactive: -0.002 | inactive: -0.013 | inactive: -0.095 | inactive: 0.025 | inactive: 0.041 | inactive: -0.008 | inactive: 0.025 | inactive: -0.026 | inactive: 0.058 | inactive: 0.004 | inactive: 0.018 | inactive: -0.006 | inactive: -0.004 | inactive: 0.006 | inactive: 0.022 | inactive: -0.001 | inactive: 0.001 | inactive: 0.015 | inactive: -0.028
EIF3M (UniProt Q7L2H7) | inactive: 0.001 | inactive: -0.006 | inactive: 0.013 | inactive: 0.133 | inactive: -0.003 | inactive: -0.078 | inactive: -0.042 | inactive: -0.048 | inactive: 0.047 | inactive: -0.037 | inactive: 0.025 | inactive: -0.019 | inactive: 0.01 | inactive: 0.033 | inactive: -0.003 | inactive: 0.087 | inactive: 0.005 | inactive: 0.013 | inactive: -0.008 | inactive: 0.005
ELP6 (UniProt Q0PNE2) | inactive: 0.011 | inactive: -0.022 | inactive: -0.026 | inactive: -0.159 | inactive: 0.021 | inactive: 0.075 | inactive: -0.015 | inactive: 0.026 | inactive: -0.065 | inactive: 0.02 | inactive: 0.001 | inactive: 0.032 | inactive: -0.004 | inactive: -0.008 | inactive: -0.051 | inactive: -0.102 | inactive: -0.007 | inactive: 0.007 | inactive: 0.007 | inactive: 0.016
ELOVL5 isoform 2 (UniProt Q9NYP7) | inactive: 0.085 | inactive: -0.028 | inactive: -0.062 | inactive: -0.099 | inactive: 0.059 | inactive: -0.205 | inactive: -0.051 | inactive: 0.023 | inactive: -0.155 | inactive: 0.298 | inactive: -0.113 | inactive: 0.015 | inactive: -0.082 | inactive: -0.09 | inactive: -0.051 | inactive: -0.089 | inactive: -0.049 | inactive: 0.079 | inactive: 0.01 | –
ENTPD5 (UniProt O75356) | inactive: -0.023 | inactive: 0.001 | inactive: 0.032 | inactive: 0.066 | inactive: -0.037 | inactive: 0.038 | inactive: -0.037 | inactive: -0.019 | inactive: -0.066 | inactive: 0.019 | inactive: 0.092 | inactive: 0.048 | inactive: -0.045 | inactive: 0.022 | inactive: 0.049 | inactive: -0.012 | inactive: -0.062 | inactive: 0.01 | inactive: 0.012 | inactive: -0.006
ERI1 (UniProt Q8IV48) | inactive: 0.037 | inactive: -0.079 | inactive: -0.017 | inactive: 0.047 | inactive: -0.022 | inactive: -0.123 | inactive: -0.015 | inactive: 0.015 | inactive: 0.04 | inactive: -0.051 | inactive: 0.004 | inactive: -0.008 | inactive: -0.012 | inactive: 0.035 | inactive: 0.041 | inactive: -0.019 | inactive: 0.043 | inactive: 0.08 | inactive: -0.019 | inactive: 0.058
ENSA isoform 3 (UniProt O43768) | inactive: 0.021 | inactive: 0.02 | inactive: 0.058 | inactive: 0.103 | inactive: 0.049 | inactive: -0.042 | inactive: -0.027 | inactive: -0.068 | inactive: 0.058 | inactive: -0.103 | inactive: -0.022 | inactive: -0.011 | inactive: 0.07 | inactive: 0.013 | inactive: -0.002 | inactive: 0.051 | inactive: -0.002 | inactive: -0.025 | inactive: -0.029 | inactive: 0.021
ERAL1 (UniProt O75616) | inactive: 0.075 | inactive: -0.025 | inactive: -0.035 | inactive: -0.152 | inactive: 0.014 | active: 0.321 | inactive: 0.041 | inactive: 0.006 | inactive: -0.079 | inactive: 0.03 | inactive: 0 | inactive: -0.001 | inactive: 0.01 | inactive: 0.003 | inactive: 0.018 | inactive: -0.078 | inactive: -0.027 | inactive: 0.083 | inactive: -0.052 | inactive: 0.008
EIF4E2 (UniProt O60573) | inactive: 0.008 | inactive: -0.009 | inactive: 0.073 | inactive: -0.032 | inactive: 0 | inactive: 0.107 | inactive: -0.038 | inactive: -0.225 | inactive: -0.019 | inactive: 0.097 | inactive: 0.007 | inactive: 0.053 | inactive: -0.036 | inactive: 0.033 | inactive: 0.005 | inactive: 0.134 | inactive: -0.066 | inactive: -0.045 | inactive: 0.001 | inactive: -0.031
ELOC (UniProt Q15369) | inactive: 0.008 | inactive: -0.026 | inactive: 0.011 | inactive: 0.017 | inactive: -0.049 | inactive: -0.017 | inactive: -0.041 | inactive: -0.018 | inactive: -0.046 | inactive: -0.041 | inactive: 0.032 | inactive: -0.012 | inactive: -0.017 | inactive: 0.06 | inactive: -0.01 | inactive: 0.034 | inactive: 0.08 | inactive: -0.006 | inactive: -0.068 | inactive: -0.019
EIF4E isoform 2 (UniProt P06730) | inactive: 0.055 | inactive: 0.015 | inactive: -0.022 | inactive: -0.014 | inactive: 0.018 | inactive: -0.008 | inactive: 0.009 | inactive: 0.003 | inactive: 0.04 | inactive: 0.032 | inactive: 0.076 | inactive: -0.003 | inactive: -0.073 | inactive: -0.001 | inactive: 0.027 | inactive: 0.037 | inactive: 0.016 | inactive: 0.017 | inactive: 0.013 | inactive: 0.053
EIF2D (UniProt P41214) | inactive: -0.002 | inactive: -0.014 | inactive: -0.067 | inactive: 0.024 | inactive: 0.022 | inactive: -0.084 | inactive: 0.029 | inactive: 0.032 | inactive: -0.063 | inactive: -0.01 | inactive: -0.034 | inactive: 0.028 | inactive: -0.027 | inactive: -0.009 | inactive: 0.002 | inactive: -0.064 | inactive: 0.024 | inactive: 0.04 | inactive: 0.008 | inactive: -0.041
ERGIC3 isoform 3 (UniProt Q9Y282) | inactive: -0.143 | inactive: -0.094 | inactive: -0.096 | inactive: 0 | inactive: -0.045 | inactive: -0.166 | inactive: -0.002 | inactive: 0.043 | inactive: -0.098 | inactive: 0.077 | inactive: -0.044 | inactive: 0.012 | inactive: -0.009 | inactive: -0.06 | inactive: 0.064 | inactive: -0.075 | inactive: -0.099 | inactive: -0.019 | inactive: 0.033 | inactive: -0.011
EPS8L2 (UniProt Q9H6S3) | inactive: 0.044 | inactive: -0.03 | inactive: -0.012 | inactive: -0.068 | inactive: -0.086 | inactive: 0.061 | inactive: -0.258 | inactive: -0.046 | inactive: -0.101 | inactive: 0.207 | inactive: -0.011 | inactive: 0.05 | inactive: 0.051 | inactive: -0.121 | inactive: 0.053 | inactive: 0.013 | inactive: 0.013 | inactive: 0.058 | inactive: -0.01 | inactive: 0.013
EP400 isoform 5 (UniProt Q96L91) | inactive: 0.052 | inactive: -0.068 | inactive: -0.04 | inactive: -0.018 | inactive: -0.036 | inactive: -0.012 | inactive: -0.041 | inactive: 0.02 | inactive: -0.053 | inactive: -0.011 | inactive: -0.05 | inactive: -0.04 | inactive: 0.001 | inactive: -0.025 | inactive: -0.005 | inactive: -0.014 | inactive: 0.04 | inactive: 0.012 | inactive: 0.019 | inactive: -0.003
ERC1 (UniProt X6RLX0) | inactive: -0.005 | inactive: -0.036 | inactive: 0.034 | inactive: 0.037 | inactive: 0.014 | inactive: 0.01 | inactive: -0.007 | inactive: -0.005 | inactive: 0 | inactive: -0.022 | inactive: 0.024 | inactive: 0.01 | inactive: 0 | inactive: -0.008 | inactive: 0.004 | inactive: -0.004 | inactive: 0.034 | inactive: -0.008 | inactive: 0.009 | inactive: 0.019

Some of the entries so far, as comma-separated lines:
Target,log2 fold change (lapatinib),log2 fold change (pictilisib),log2 fold change (crizotinib),log2 fold change [1],log2 fold change (duvelisib),log2 fold change (gandotinib),log2 fold change (tozasertib),log2 fold change (doramapimod),log2 fold change (bafetinib),log2 fold change [2],log2 fold change (nilotinib),log2 fold change [3],log2 fold change (dasatinib),log2 fold change [4],log2 fold change [5],log2 fold change (quisinostat),log2 fold change (tipifarnib),log2 fold change [6],log2 fold change [7],log2 fold change [8]
EPS8L2 (UniProt Q9H6S3),inactive: 0.044,inactive: -0.03,inactive: -0.012,inactive: -0.068,inactive: -0.086,inactive: 0.061,inactive: -0.258,inactive: -0.046,inactive: -0.101,inactive: 0.207,inactive: -0.011,inactive: 0.05,inactive: 0.051,inactive: -0.121,inactive: 0.053,inactive: 0.013,inactive: 0.013,inactive: 0.058,inactive: -0.01,inactive: 0.013
ERC1 (UniProt X6RLX0),inactive: -0.005,inactive: -0.036,inactive: 0.034,inactive: 0.037,inactive: 0.014,inactive: 0.01,inactive: -0.007,inactive: -0.005,inactive: 0,inactive: -0.022,inactive: 0.024,inactive: 0.01,inactive: 0,inactive: -0.008,inactive: 0.004,inactive: -0.004,inactive: 0.034,inactive: -0.008,inactive: 0.009,inactive: 0.019

Reference: the supplement of paper PMC10849652
